PMC6529012
No constants are given. Whether binding was seen depends on the method and setting. Binding calls can cover weak binding; strength is not graded here.

B1: Tp0136 of Treponema pallidum subsp. pallidum SS14 strain, expressed on the surface of B. burgdorferi B314 (protein, UniProt O83172 24-485)
chain: CDFTGIFAAIQSEVPIKTPSIPGAIYGLVKAGSKLYATNGRLWEKELNGTGSWQKVSSSSVPTDSDKKVMSIATDGNTFVLACVPGTGVYKHCVNGAGSSSTGTTASPSTETCSQHATLVGGTSKPFWLVPGGTGNNGNCGCGGGGGGSSSSSSSCIHIWLVPGGTGNNGNCGCGGGGGGSSSSSSSCIHIKVENTDEQFLDMGEGYVVTTKHLYTKNGSSSAGPAQCPGGGGGGGSSGGGGSSEYTKASCSFSTPILASVSDGCYHYILTKEKVYCRKQDTASSAASSPAQCPSSPSSSSSSSTNAGCEVAHGVDDPLCLAIFKHNGCEYLLIGGSRGYGEIKLEANSSGTNGTCMRLKESNVHKSPGQWGESSPTPKASAEQYRGTVGRFAVQKIYVVEKNGGGNGVAAGGAGCPANASSSSGGTSSTQRPDLYAAVGESSDTYTGLWKFDTTTCSWNRE
B2: Tp0136 of Treponema pallidum subsp. pallidum Nichols (Seattle-Nichols) strain, expressed on the surface of B. burgdorferi B314 (protein, UniProt O83172 24-485)
chain: B1 chain

What was measured:
[1] = molecular target: human foreskin fibroblast fibronectin (human); experiment: adherence of radiolabelled bacteria to protein-coated wells; 1 ug fibronectin or laminin coated per well, blocked with 1% BSA in PBS; 35S-labelled B314 expressing Tp0136 added, 1 h at room temperature while rocking; scintillation counting; B314 with empty vector as control; only the target purified
[2] = molecular target: human foreskin fibroblast fibronectin (human); experiment: adherence of radiolabelled bacteria to protein-coated wells; inhibition: fibronectin-coated wells preincubated with PBS (mock) or FnbA-2 peptide (200 ug/ml, 10 ug/well) for 1 h at room temperature, washed twice, then 35S-labelled B314 expressing Tp0136 for 1 h; scintillation counting; only the target purified

| Binder | binding [1] | binding [2] |
| --- | --- | --- |
| B1 | binds | binds |
| B2 | binds | binds |
